Measured values taken from the supplement of paper PMC10849652.
The list shows a part of the results.

Sequences of proteins named here, by UniProt entry; tags and fusion partners are left off. A change or cut given only in a name is not applied to a line headed by its entry.
UniProt O75131: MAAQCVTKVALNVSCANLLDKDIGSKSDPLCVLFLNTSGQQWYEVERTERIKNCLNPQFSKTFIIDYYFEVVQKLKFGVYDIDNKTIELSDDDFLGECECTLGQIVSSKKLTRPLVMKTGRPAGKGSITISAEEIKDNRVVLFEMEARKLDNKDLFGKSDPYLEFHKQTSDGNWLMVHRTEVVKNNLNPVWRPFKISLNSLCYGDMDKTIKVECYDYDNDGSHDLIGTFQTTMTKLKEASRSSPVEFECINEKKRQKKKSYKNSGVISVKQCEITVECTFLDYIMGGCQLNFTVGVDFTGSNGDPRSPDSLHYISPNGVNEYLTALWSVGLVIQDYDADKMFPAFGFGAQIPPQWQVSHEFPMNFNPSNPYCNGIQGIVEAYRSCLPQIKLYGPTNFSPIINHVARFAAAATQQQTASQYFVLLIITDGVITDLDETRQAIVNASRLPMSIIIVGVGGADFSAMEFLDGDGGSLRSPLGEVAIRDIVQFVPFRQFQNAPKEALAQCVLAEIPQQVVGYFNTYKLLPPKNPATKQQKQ
UniProt Q99807: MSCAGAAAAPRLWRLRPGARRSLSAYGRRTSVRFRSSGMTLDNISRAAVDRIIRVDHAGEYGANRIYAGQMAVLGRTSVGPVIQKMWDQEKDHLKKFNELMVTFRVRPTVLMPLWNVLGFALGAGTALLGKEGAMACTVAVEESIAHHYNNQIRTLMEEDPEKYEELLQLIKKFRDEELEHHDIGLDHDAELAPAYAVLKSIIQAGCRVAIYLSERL
UniProt O75175, whole entry, looked up: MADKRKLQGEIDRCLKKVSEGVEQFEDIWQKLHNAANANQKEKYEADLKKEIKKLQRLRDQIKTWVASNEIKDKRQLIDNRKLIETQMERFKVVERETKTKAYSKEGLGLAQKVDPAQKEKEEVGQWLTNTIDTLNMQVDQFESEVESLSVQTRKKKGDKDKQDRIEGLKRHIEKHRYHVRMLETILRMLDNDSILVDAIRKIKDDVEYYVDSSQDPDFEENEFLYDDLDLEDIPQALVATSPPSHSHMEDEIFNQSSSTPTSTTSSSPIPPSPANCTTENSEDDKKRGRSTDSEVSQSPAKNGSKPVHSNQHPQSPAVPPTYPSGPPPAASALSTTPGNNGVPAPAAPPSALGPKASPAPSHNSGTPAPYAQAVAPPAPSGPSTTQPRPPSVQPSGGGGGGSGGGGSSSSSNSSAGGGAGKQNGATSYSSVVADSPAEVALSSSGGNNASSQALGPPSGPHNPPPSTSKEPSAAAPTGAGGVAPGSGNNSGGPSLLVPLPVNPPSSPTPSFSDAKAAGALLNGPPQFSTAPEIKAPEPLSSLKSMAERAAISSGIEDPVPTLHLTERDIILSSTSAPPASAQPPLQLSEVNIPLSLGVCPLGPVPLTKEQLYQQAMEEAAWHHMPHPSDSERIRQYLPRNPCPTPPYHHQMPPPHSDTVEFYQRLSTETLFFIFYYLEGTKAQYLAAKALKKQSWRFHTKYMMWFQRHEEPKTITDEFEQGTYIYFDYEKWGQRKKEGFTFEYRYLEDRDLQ
UniProt Q9Y2Z9: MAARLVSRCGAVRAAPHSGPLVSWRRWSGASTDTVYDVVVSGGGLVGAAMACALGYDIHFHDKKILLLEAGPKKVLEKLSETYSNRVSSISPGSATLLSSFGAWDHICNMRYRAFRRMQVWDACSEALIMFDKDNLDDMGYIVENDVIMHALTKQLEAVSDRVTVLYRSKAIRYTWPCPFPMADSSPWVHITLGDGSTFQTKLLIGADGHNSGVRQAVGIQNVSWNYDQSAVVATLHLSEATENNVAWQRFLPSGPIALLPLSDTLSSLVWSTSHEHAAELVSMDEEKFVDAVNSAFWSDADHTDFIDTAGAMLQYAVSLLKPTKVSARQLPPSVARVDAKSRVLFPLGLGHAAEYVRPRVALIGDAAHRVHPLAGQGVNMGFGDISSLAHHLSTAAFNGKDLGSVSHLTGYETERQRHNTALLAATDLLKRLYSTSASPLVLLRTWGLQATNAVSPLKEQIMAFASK
UniProt Q9Y2B0: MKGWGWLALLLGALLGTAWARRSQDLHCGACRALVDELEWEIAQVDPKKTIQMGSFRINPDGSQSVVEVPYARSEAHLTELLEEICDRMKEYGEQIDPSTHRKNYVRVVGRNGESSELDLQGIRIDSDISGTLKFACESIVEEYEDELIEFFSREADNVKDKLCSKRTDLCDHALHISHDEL
UniProt Q86X83, whole entry, looked up: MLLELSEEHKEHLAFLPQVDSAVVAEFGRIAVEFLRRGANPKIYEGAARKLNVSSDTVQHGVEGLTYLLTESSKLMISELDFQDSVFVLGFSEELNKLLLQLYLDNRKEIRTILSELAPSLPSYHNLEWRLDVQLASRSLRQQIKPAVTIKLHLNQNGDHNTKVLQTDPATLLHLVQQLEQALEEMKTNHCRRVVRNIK
UniProt Q5JTJ3: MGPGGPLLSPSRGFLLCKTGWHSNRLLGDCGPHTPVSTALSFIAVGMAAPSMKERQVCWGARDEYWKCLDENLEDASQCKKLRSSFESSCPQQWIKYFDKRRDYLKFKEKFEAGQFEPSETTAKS
UniProt O75208: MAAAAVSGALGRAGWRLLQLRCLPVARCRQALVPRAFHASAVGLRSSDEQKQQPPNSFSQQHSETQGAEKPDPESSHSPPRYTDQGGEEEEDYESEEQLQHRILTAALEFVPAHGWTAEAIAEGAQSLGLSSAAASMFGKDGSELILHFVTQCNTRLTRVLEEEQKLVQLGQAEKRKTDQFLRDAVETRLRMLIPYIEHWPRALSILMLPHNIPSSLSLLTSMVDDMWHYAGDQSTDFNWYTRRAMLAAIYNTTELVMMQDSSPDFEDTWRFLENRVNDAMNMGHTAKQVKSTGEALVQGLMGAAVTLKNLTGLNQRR
UniProt Q9Y6G5, whole entry, looked up: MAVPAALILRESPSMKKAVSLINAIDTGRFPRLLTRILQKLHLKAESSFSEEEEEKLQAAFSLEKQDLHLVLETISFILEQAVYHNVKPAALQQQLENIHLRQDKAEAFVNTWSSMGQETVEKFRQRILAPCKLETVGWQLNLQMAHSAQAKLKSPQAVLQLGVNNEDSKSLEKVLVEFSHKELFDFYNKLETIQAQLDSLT
UniProt Q9UKF6: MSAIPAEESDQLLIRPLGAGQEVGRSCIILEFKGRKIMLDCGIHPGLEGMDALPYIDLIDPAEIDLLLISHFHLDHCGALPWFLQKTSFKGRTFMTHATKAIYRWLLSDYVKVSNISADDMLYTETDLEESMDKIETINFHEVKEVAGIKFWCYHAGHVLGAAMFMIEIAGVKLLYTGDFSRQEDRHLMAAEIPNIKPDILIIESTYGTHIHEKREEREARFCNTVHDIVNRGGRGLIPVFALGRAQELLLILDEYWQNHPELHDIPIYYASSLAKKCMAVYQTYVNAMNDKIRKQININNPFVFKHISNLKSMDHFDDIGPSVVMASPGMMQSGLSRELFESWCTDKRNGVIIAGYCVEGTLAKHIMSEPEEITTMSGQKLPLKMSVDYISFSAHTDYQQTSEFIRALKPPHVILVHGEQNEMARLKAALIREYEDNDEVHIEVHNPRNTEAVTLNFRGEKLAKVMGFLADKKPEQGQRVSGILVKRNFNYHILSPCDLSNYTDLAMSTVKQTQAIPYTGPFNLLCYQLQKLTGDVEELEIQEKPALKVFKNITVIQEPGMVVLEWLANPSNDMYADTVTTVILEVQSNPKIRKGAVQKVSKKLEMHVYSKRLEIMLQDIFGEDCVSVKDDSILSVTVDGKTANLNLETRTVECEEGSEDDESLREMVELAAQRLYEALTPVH
UniProt P21964: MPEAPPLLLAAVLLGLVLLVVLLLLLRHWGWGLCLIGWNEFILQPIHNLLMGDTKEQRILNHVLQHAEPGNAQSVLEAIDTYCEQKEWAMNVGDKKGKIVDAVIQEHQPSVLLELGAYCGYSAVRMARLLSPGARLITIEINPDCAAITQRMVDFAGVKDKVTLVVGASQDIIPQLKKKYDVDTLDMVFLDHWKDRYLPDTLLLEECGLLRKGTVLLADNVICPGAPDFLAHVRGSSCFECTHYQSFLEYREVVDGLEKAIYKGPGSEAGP
UniProt Q16630, whole entry, looked up: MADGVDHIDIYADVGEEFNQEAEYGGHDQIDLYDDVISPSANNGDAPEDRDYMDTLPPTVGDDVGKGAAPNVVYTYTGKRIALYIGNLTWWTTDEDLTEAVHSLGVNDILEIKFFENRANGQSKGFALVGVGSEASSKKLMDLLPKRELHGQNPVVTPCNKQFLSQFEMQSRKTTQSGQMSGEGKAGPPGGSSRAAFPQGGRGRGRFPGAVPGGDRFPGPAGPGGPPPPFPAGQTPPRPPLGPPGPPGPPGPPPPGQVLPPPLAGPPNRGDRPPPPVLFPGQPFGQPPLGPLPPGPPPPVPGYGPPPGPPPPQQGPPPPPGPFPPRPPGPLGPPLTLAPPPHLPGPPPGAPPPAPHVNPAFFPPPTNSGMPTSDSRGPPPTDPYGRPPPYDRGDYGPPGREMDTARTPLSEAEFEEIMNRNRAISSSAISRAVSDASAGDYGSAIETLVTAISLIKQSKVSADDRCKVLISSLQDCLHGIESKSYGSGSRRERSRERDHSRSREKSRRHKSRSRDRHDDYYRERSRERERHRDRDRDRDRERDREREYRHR
UniProt P78560: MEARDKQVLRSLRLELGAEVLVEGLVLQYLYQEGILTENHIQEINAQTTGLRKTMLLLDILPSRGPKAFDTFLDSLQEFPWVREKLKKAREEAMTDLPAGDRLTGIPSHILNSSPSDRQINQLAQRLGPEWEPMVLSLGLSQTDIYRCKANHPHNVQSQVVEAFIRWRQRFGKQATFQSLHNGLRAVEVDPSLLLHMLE
UniProt O95628: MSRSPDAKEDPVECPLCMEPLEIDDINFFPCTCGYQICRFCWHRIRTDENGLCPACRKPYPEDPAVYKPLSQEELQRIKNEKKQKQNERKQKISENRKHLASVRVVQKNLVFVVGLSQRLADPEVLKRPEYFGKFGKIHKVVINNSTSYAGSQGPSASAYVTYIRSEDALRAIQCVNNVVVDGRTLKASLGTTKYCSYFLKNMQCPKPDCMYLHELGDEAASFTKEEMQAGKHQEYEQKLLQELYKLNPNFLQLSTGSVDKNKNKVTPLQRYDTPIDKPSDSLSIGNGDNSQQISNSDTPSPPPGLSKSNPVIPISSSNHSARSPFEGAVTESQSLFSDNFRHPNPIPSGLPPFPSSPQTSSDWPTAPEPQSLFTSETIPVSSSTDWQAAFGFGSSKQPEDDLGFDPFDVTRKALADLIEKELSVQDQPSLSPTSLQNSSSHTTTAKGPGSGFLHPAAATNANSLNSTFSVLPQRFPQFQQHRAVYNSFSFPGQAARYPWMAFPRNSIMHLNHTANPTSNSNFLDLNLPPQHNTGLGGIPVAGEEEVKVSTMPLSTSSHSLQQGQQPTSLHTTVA
UniProt Q9ULM6, whole entry, looked up: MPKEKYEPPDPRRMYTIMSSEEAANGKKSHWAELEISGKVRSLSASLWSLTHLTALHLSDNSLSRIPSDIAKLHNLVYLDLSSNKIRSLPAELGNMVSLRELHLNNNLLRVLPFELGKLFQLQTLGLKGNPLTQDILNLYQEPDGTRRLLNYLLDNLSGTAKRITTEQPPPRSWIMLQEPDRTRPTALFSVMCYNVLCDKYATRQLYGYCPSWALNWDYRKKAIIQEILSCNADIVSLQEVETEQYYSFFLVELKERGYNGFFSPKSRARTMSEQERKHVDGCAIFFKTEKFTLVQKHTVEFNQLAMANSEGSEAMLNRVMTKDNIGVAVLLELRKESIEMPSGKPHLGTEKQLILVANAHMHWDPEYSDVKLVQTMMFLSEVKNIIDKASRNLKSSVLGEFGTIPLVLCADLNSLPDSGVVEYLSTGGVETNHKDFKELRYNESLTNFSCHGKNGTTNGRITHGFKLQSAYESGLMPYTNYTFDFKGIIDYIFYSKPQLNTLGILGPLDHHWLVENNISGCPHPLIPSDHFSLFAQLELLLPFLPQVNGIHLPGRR

How the values were obtained:
Test in all cases: log2 fold change, soluble protein after heating vs DMSO (PISA); higher = thermal stabilisation; K562 lysate, 10 uM; active = over 0.2 and 3.5 SD of the protein, either way, in both replicates (recomputed)
[1] = compound: CCCS(=O)(=O)Nc1ccc(F)c(C(=O)c2c[nH]c3ncc(-c4ccc(Cl)cc4)cc23)c1F [vemurafenib]
Summary of the method: (§1)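 Quantification was by TMTpro 16plex LC-MS/MS with equalised channel sums, applied to the supernatant after 21,000xg for 90 min. Samples were crude K562 extract at 1 mg/mL protein in PBS pH 7.4 with 1 mM MgCl2, treated with 10 μM compound for 30 min, heated for 3 min across 48°C-58°C, pooled and brought to 0.5% NP-40 at 4°C. Values are log-two fold changes in thermal stability relative to solvent controls, from duplicates.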

[2] = compound: CCCS(=O)(=O)Nc1ccc(F)c(C(=O)c2c[nH]c3ncc(Cl)cc23)c1F
Summary of the method: as §1

[3] = compound: CCN(CCCOc1ccc2c(Nc3cc(CC(=O)Nc4cccc(F)c4)[nH]n3)ncnc2c1)CCOP(=O)(O)O [barasertib]
Summary of the method: as §1

[4] = compound: CC[C@@H]1C(=O)N(C)c2cnc(Nc3ccc(C(=O)NC4CCN(C)CC4)cc3OC)nc2N1C1CCCC1
Summary of the method: as §1

[5] = compound: CC[C@@H]1C(=O)N(C)c2cnc(Nc3ccc(C(=O)N[C@H]4CC[C@H](N5CCN(CC6CC6)CC5)CC4)cc3OC)nc2N1C(C)C [volasertib]
Summary of the method: as §1

[6] = compound: CCn1c(C(=O)N(C2CC2)C2CC2)cc2c3c(ncn3C)c(Nc3cc(C)n(C)n3)nc21
Summary of the method: as §1

[7] = compound: CCn1cc(-c2ccnc3[nH]c(-c4cccc(CN(C)C)c4)cc23)c(-c2ccc(NC(=O)N(C)C)cc2)n1
Summary of the method: as §1

[8] = compound: CN1CCC(CNc2ccc3ncc(-c4cccc(OC(F)(F)F)c4)n3n2)CC1
Summary of the method: as §1

[9] = compound: CN1CCN(CCOc2cc(OC3CCOCC3)c3c(Nc4c(Cl)ccc5c4OCO5)ncnc3c2)CC1 [saracatinib]
Summary of the method: as §1

[10] = compound: CN1CCN(c2nc(C3=C(c4c[nH]c5ccccc45)C(=O)NC3=O)c3ccccc3n2)CC1 [sotrastaurin]
Summary of the method: as §1

Measured: log2 fold change

CPNE3 (UniProt O75131)
inactive: [1] -0.006 | [2] 0.007 | [3] -0.03 | [4] -0.056 | [5] -0.03 | [6] 0.032 | [7] -0.117 | [8] 0.085 | [9] -0.019 | [10] -0.004

COQ7 (UniProt Q99807)
inactive: [1] 0.03 | [2] -0.012 | [3] 0.056 | [4] 0.021 | [5] -0.016 | [6] -0.01 | [7] 0.023 | [8] 0.026 | [9] 0.011 | [10] -0.006

CNOT3 (UniProt O75175)
inactive: [1] -0.01 | [2] 0.008 | [3] -0.001 | [4] 0.159 | [5] -0.013 | [6] 0.055 | [7] -0.044 | [8] 0.08 | [9] 0.009 | [10] -0.009

COQ6 (UniProt Q9Y2Z9)
inactive: [1] -0.011 | [2] 0.011 | [3] -0.034 | [4] 0.019 | [5] -0.01 | [6] -0.006 | [7] 0.014 | [8] 0.012 | [9] 0.006 | [10] -0.002

2 entries drawn at random from those above, as already listed:
COQ7 (UniProt Q99807)
inactive: [1] 0.03 | [2] -0.012 | [3] 0.056 | [4] 0.021 | [5] -0.016 | [6] -0.01 | [7] 0.023 | [8] 0.026 | [9] 0.011 | [10] -0.006

CNOT3 (UniProt O75175)
inactive: [1] -0.01 | [2] 0.008 | [3] -0.001 | [4] 0.159 | [5] -0.013 | [6] 0.055 | [7] -0.044 | [8] 0.08 | [9] 0.009 | [10] -0.009

Further records follow.

CNPY2 (UniProt Q9Y2B0)
inactive: [1] -0.014 | [2] -0.001 | [3] 0.02 | [4] -0.035 | [5] 0.004 | [6] 0.037 | [7] 0.181 | [8] 0.021 | [9] 0.006 | [10] 0.04

COMMD2 (UniProt Q86X83)
inactive: [1] 0.065 | [2] 0.09 | [3] 0.081 | [4] -0.017 | [5] -0.063 | [6] 0.025 | [7] -0.009 | [8] -0.007 | [9] 0.048 | [10] 0.021

COA6 isoform 2 (UniProt Q5JTJ3)
inactive: [1] 0 | [2] 0.012 | [3] 0.041 | [4] -0.113 | [5] 0.002 | [6] 0.019 | [7] -0.05 | [8] 0.016 | [9] 0.002 | [10] 0.04

COQ9 (UniProt O75208)
active: [3] 0.275
inactive: [1] -0.023 | [2] 0.126 | [4] 0 | [5] -0.012 | [6] 0.002 | [7] 0.015 | [8] -0.066 | [9] -0.001 | [10] -0.101

COMMD10 (UniProt Q9Y6G5)
inactive: [1] -0.012 | [2] -0.001 | [3] 0.104 | [4] 0.039 | [5] -0.016 | [6] 0.02 | [7] 0.062 | [8] 0.001 | [9] 0.022 | [10] -0.005

CPSF3 (UniProt Q9UKF6)
inactive: [1] -0.066 | [2] -0.014 | [3] 0.004 | [4] -0.044 | [5] -0.004 | [6] 0.03 | [7] -0.013 | [8] 0.005 | [9] -0.004 | [10] 0.023

COMT (UniProt P21964)
inactive: [1] -0.052 | [2] 0.012 | [3] 0.024 | [4] -0.101 | [5] -0.056 | [6] 0.039 | [7] 0.026 | [8] 0.005 | [9] 0.008 | [10] 0.036

CPSF6 isoform 2 (UniProt Q16630)
inactive: [1] -0.019 | [2] 0.001 | [3] -0.011 | [4] -0.034 | [5] -0.015 | [6] 0.014 | [7] 0.049 | [8] -0.002 | [9] -0.004 | [10] -0.014

CRADD (UniProt P78560)
inactive: [1] -0.02 | [2] 0.055 | [3] 0.112 | [4] -0.022 | [5] -0.023 | [6] -0.018 | [7] 0.012 | [8] -0.079 | [9] 0.03 | [10] 0.029

CNOT4 isoform 6 (UniProt O95628)
inactive: [1] -0.052 | [2] 0.008 | [3] -0.014 | [4] 0.057 | [5] 0.009 | [6] 0.108 | [7] -0.053 | [8] 0 | [9] 0.057 | [10] -0.005

CNOT6 (UniProt Q9ULM6)
inactive: [1] -0.029 | [2] -0.003 | [3] 0.088 | [4] 0.028 | [5] -0.11 | [6] 0.002 | [7] -0.03 | [8] 0.002 | [9] -0.001 | [10] 0.025
